Data as given in PubChem BioAssay AID1508597 (Cure First, 2020)
This is a random part of the about 2,100 reagents, in one setting of the screen. 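Calls flag viability under 80% in either arm, not effects specific to rucaparib; the reference for percent is not stated.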 Some reagents were tested in more than one well and are listed for each. Not stated in the record: the 100% reference.

Purpose: 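Knock-downs altering ovarian cancer cell survival with or without PARP inhibitor rucaparib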 (primary screen)
Cells: human ovarian carcinoma lines grown from tumours: OCI-P5x (papillary serous) and OCI-C5x (clear cell)
Knock-down reagent: siRNA pool against human genes, 1.25 pmol siRNA per well
Time to read-out: 72 h or 96 h, depending on the cell culture
Challenge: rucaparib 20 µM (about IC30) or vehicle, present until read-out
Rucaparib or vehicle: Vehicle
Cell line: OCI-C5x (clear cell)
Measurement: 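ATP luminescence measured at 72 or 96 h according to the culture, then normalised and expressed as percent viability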
Direction: viability, normalised: higher = more viable cells remaining
Rule for the call: 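Active when normalised viability falls below 80 percent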
Calls: active = viability under 80%; inactive = viability 80% or more

gene symbol | technical replicate | viability, normalised (%) | Outcome
CDKL3 (cyclin dependent kinase like 3) | 1 | 50.9 | active
CDKL3 (cyclin dependent kinase like 3) | 2 | 49.4 | active
CDKL3 (cyclin dependent kinase like 3) | 3 | 48.7 | active
BAZ2A (bromodomain adjacent to zinc finger domain 2A) | 1 | 11.3 | active
BAZ2A (bromodomain adjacent to zinc finger domain 2A) | 2 | 16.7 | active
BAZ2A (bromodomain adjacent to zinc finger domain 2A) | 3 | 13.8 | active
KDM3B (lysine demethylase 3B) | 1 | 57.1 | active
KDM3B (lysine demethylase 3B) | 2 | 53.7 | active
KDM3B (lysine demethylase 3B) | 3 | 70.9 | active
XRCC1 (X-ray repair cross complementing 1) | 1 | 56.6 | active
XRCC1 (X-ray repair cross complementing 1) | 2 | 73.3 | active
XRCC1 (X-ray repair cross complementing 1) | 3 | 66.6 | active
CHMP2A (charged multivesicular body protein 2A) | 1 | 20.2 | active
CHMP2A (charged multivesicular body protein 2A) | 2 | 17.8 | active
CHMP2A (charged multivesicular body protein 2A) | 3 | 21.4 | active
MAP3K6 (mitogen-activated protein kinase kinase kinase 6) | 1 | 80.8 | inactive
MAP3K6 (mitogen-activated protein kinase kinase kinase 6) | 2 | 64.7 | active
MAP3K6 (mitogen-activated protein kinase kinase kinase 6) | 3 | 67.5 | active
JUN (Jun proto-oncogene, AP-1 transcription factor subunit) | 1 | 54.1 | active
JUN (Jun proto-oncogene, AP-1 transcription factor subunit) | 2 | 36.9 | active
JUN (Jun proto-oncogene, AP-1 transcription factor subunit) | 3 | 38.1 | active
MAP3K2 (mitogen-activated protein kinase kinase kinase 2) | 1 | 55.9 | active
MAP3K2 (mitogen-activated protein kinase kinase kinase 2) | 2 | 52.8 | active
MAP3K2 (mitogen-activated protein kinase kinase kinase 2) | 3 | 54 | active
NEK3 (NIMA related kinase 3) | 1 | 70.5 | active
NEK3 (NIMA related kinase 3) | 2 | 63.5 | active
NEK3 (NIMA related kinase 3) | 3 | 50.2 | active
PRKAG1 (protein kinase AMP-activated non-catalytic subunit gamma 1) | 1 | 82.2 | inactive
PRKAG1 (protein kinase AMP-activated non-catalytic subunit gamma 1) | 2 | 85.3 | inactive
PRKAG1 (protein kinase AMP-activated non-catalytic subunit gamma 1) | 3 | 64.7 | active
DHX32 (DEAH-box helicase 32 (putative)) | 1 | 29.6 | active
DHX32 (DEAH-box helicase 32 (putative)) | 2 | 43.4 | active
DHX32 (DEAH-box helicase 32 (putative)) | 3 | 38.3 | active
MED20 (mediator complex subunit 20) | 1 | 44.2 | active
MED20 (mediator complex subunit 20) | 2 | 48.7 | active
MED20 (mediator complex subunit 20) | 3 | 34.4 | active
NLGN2 (neuroligin 2) | 1 | 50.6 | active
NLGN2 (neuroligin 2) | 2 | 46.5 | active
NLGN2 (neuroligin 2) | 3 | 54.2 | active
KIF18A (kinesin family member 18A) | 1 | 69.1 | active
KIF18A (kinesin family member 18A) | 1 | 66 | active
KIF18A (kinesin family member 18A) | 2 | 37 | active
KIF18A (kinesin family member 18A) | 2 | 53.3 | active
KIF18A (kinesin family member 18A) | 3 | 59.8 | active
KIF18A (kinesin family member 18A) | 3 | 42 | active
PARP14 (poly(ADP-ribose) polymerase family member 14) | 1 | 30 | active
PARP14 (poly(ADP-ribose) polymerase family member 14) | 2 | 20.3 | active
PARP14 (poly(ADP-ribose) polymerase family member 14) | 3 | 43.8 | active
FRMPD4 (FERM and PDZ domain containing 4) | 1 | 50.2 | active
FRMPD4 (FERM and PDZ domain containing 4) | 2 | 56.9 | active
FRMPD4 (FERM and PDZ domain containing 4) | 3 | 62.4 | active
PRDM4 (PR/SET domain 4) | 1 | 38.7 | active
PRDM4 (PR/SET domain 4) | 2 | 49.2 | active
PRDM4 (PR/SET domain 4) | 3 | 59.1 | active
ROR2 (ROR family WNT receptor 2) | 1 | 51.8 | active
ROR2 (ROR family WNT receptor 2) | 2 | 54.1 | active
ROR2 (ROR family WNT receptor 2) | 3 | 49.4 | active

A run of entries from the list above:
gene symbol | technical replicate | viability, normalised (%) | Outcome
BAZ2A (bromodomain adjacent to zinc finger domain 2A) | 3 | 13.8 | active
KDM3B (lysine demethylase 3B) | 1 | 57.1 | active
KDM3B (lysine demethylase 3B) | 2 | 53.7 | active
KDM3B (lysine demethylase 3B) | 3 | 70.9 | active
XRCC1 (X-ray repair cross complementing 1) | 1 | 56.6 | active
XRCC1 (X-ray repair cross complementing 1) | 2 | 73.3 | active
XRCC1 (X-ray repair cross complementing 1) | 3 | 66.6 | active
CHMP2A (charged multivesicular body protein 2A) | 1 | 20.2 | active
CHMP2A (charged multivesicular body protein 2A) | 2 | 17.8 | active
